{
  "sequences": {"note": "Sequences of proteins named here, by UniProt entry; tags and fusion partners are left off. A change or cut given only in a name is not applied to a line headed by its entry.", "UniProt P18054": "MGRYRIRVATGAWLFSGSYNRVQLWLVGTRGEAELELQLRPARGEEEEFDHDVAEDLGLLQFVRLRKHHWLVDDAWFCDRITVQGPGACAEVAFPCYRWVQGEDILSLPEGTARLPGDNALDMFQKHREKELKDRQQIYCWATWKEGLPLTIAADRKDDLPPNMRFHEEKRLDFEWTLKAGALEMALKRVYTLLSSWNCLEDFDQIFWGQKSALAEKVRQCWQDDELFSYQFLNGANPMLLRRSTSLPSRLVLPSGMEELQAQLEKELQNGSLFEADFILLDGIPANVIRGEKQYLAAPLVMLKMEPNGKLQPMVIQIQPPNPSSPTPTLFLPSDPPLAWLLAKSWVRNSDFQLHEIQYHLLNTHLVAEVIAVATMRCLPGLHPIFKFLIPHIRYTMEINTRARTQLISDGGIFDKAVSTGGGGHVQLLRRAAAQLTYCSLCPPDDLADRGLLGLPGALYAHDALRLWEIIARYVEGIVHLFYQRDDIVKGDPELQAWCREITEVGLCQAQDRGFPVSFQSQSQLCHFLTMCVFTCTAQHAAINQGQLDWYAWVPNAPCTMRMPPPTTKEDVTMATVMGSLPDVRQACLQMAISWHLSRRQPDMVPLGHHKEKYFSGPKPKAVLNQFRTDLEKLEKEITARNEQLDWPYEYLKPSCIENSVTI"},
  "source": "PubChem BioAssay AID1671190",
  "about": "(National Center for Advancing Translational Sciences (NCATS), 2021)",
  "note": "Several values for one entry are separate records, joined by “and”; a condition that tells them apart may be missing. Equal values may be shown once. Out of some 580,000 compounds screened, about 6,100 (1.1%) were called active. This list was built around the results that the source calls inconclusive (neither active nor inactive); the mix of calls is not that of the screen. The call rests on the fitted dose curve; in most records, active means well fitted inhibition curve with a large enough effect; inconclusive means small, poorly fitted or top-dose-only effect, or another doubt; inactive means no such curve, though single readings can be large or run the other way. Potencies of inconclusive entries are doubtful fits and often do not repeat. On the % scale 0 is the no-effect control and ±100 the full control effect; potency means the concentration at half of the fitted maximal effect.",
  "data": [
    {"biological_target": "Polyunsaturated fatty acid lipoxygenase ALOX12 (Homo sapiens) (UniProt P18054)", "experiment": "Primary qHTS assay for inhibitors of human arachidonate 12S-lipoxygenase (ALOX12): Round 2", "details": "purified 12hLO, xylenol orange hydroperoxide absorbance; activity change, negative = inhibition: at 108 µM (top of the series) unless noted", "outline": "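Purified human 12hLO at 150 nM in 25 mM Hepes, 0.01% Triton X-100, pH 7.0, preincubated 15 min at room temperature with compound. Reaction started with 40 uM arachidonic acid, 30 min at room temperature. Hydroperoxide measured by Fe-xylenol orange, 573/405 nm absorbance ratio.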", "values": [
      {"smiles": "Cc1ccc(S(=O)(=O)Nc2cc(C(=O)NCCN(C)C)ccc2N2CCCCC2)cc1", "Potency": "inconclusive: 79.4 µM [inhibitor, partial curve, poor fit]"},
      {"smiles": "COc1ccc(N2CCN(C(c3nnnn3C3CCCC3)C(C)C)CC2)cc1", "note": "(stereo unspecified)", "Potency": "inconclusive: 25.1 µM [inhibitor, partial curve, poor fit]"},
      {"smiles": "COc1ccc(CCNc2ncnc3c2[nH]c2cc(OC)c(OC)cc23)cc1OC", "Potency": "inconclusive: 79.4 µM [inhibitor, partial curve, poor fit]"},
      {"smiles": "COc1ccc(OC)c(NC(=O)COC(=O)C2CCN(C(=O)c3ccc(Cl)cc3)CC2)c1", "activity change, negative = inhibition": "inactive: -7.25%"},
      {"smiles": "CSCCC(NC(=O)c1ccc(-c2ccc(Cl)cc2)s1)C(=O)O", "note": "(stereo unspecified)", "Potency": "inconclusive: 89.1 µM [inhibitor, single point]"},
      {"smiles": "O=C(NNC(=O)c1cc2ccccc2[nH]1)OCc1ccccc1", "Potency": "inconclusive: 79.4 µM [inhibitor, partial curve, poor fit]"},
      {"smiles": "CCOc1ccc(-n2ccnc(NCc3ccccc3)c2=O)cc1", "activity change, negative = inhibition": "inactive: -66.6%"},
      {"smiles": "CC(NC(=O)c1cc2ccccc2[nH]1)c1ccccc1", "note": "(stereo unspecified)", "activity change, negative = inhibition": "inactive: 20.7%"},
      {"smiles": "COc1ccc(/C=C/C(=O)OCc2cc(=O)n3c(n2)sc2ccccc23)cc1", "activity change, negative = inhibition": "inactive: 4.93%"},
      {"smiles": "CCN(c1ccccc1)S(=O)(=O)c1cc2c3c(c1)C(C)C(=O)N3CCC2", "note": "(stereo unspecified)", "Potency": "inactive and inconclusive: 112 µM [inhibitor, partial curve, poor fit]"},
      {"smiles": "CCc1ccc(NC(=O)Cn2cc(OC)c(=O)cc2CSc2ccc(F)cc2)cc1", "Potency": "inconclusive: 35.5 µM [inhibitor, partial curve, poor fit]"},
      {"smiles": "Cc1cc2nc(-c3ccc(SCc4ccccn4)nc3)[nH]c2cc1C", "Potency": "inconclusive: 35.5 µM [inhibitor, single point]"},
      {"smiles": "Cc1csc(CNc2ncnc3ccc(-c4cccc(Cl)c4)cc23)c1", "Potency": "inconclusive: 0.631 µM [inhibitor, full curve, poor fit]"},
      {"smiles": "O=Cc1cccc(OCc2cn(CC(=O)c3ccc(O)cc3)nn2)c1", "Potency": "inconclusive: 5.01 µM [inhibitor, full curve, poor fit]"},
      {"smiles": "CCOc1ccc(NC(=O)c2sccc2-n2cccc2)cc1", "Potency": "inconclusive: 56.2 µM [inhibitor, partial curve, poor fit]"},
      {"smiles": "O=C(Nc1ccc(Br)cc1F)N1CCC(CN2CCc3ccccc3C2)CC1", "Potency": "inconclusive: 20 µM [inhibitor, partial curve, poor fit]"},
      {"smiles": "COC(=O)c1cc(Cl)ccc1NC(=O)CSc1ncc(S(=O)(=O)c2ccc(Br)cc2)c(=O)[nH]1", "Potency": "inconclusive: 11.2 µM [inhibitor, full curve, poor fit]"},
      {"smiles": "O=c1c2cc(NC(=S)NCCCN3CCC(Cc4ccccc4)CC3)ccc2nc2n1CCCCC2", "Potency": "inconclusive: 56.2 µM [inhibitor, single point]"},
      {"smiles": "CN(C)c1ncnc2sc3c(c12)CCN(S(=O)(=O)c1ccccc1)C3", "activity change, negative = inhibition": "inactive: -2.29%"},
      {"smiles": "c1ccc(Nc2cnc3ccc(-n4ccnc4)nn23)cc1", "Potency": "inconclusive: 141 µM [inhibitor, partial curve, poor fit]"},
      {"smiles": "CN(Cc1ccccn1)C(=O)c1cc(COc2ccc(F)cc2Cl)on1", "activity change, negative = inhibition": "inactive: -6.82%"},
      {"smiles": "COC(=O)C(C)Oc1ccc2c(=O)c(-c3ccc(Br)cc3)c(C)oc2c1", "note": "(stereo unspecified)", "activity change, negative = inhibition": "inactive: -11.7%"},
      {"smiles": "O=C(Nc1nc2n(n1)C(c1ccc(Cl)cc1)CC(c1ccc(Cl)cc1)N2)c1ccco1", "note": "(stereo unspecified)", "Potency": "inconclusive: 25.1 µM [inhibitor, single point]"},
      {"smiles": "CN(Cc1ccco1)c1ccnc(-c2cccnc2)n1", "Potency": "inconclusive: 7.08 µM [inhibitor, partial curve, poor fit]"},
      {"smiles": "Cc1ccc(NC(=O)Cn2c(-c3ccc(F)cc3)nc(C)c(CCO)c2=O)cc1Cl", "Potency": "inconclusive: 79.4 µM [inhibitor, single point]"},
      {"smiles": "COc1ccc(NC(=O)COc2ccc3c(c2)CCC3)cc1", "Potency": "inconclusive: 79.4 µM [inhibitor, single point]"},
      {"smiles": "O=C(O)CNC(=O)C1COc2ccccc2O1", "note": "(stereo unspecified)", "activity change, negative = inhibition": "inactive: 4.27%"},
      {"smiles": "O=C(CSc1nc(Cl)nc2nc[nH]c12)Nc1ccc(Cl)cc1", "activity change, negative = inhibition": "inactive: 28.4%"},
      {"smiles": "CCOc1ccc(NC(=O)Cn2c(=O)c3c(ncn3CCC(C)C)n(Cc3ccccc3)c2=O)cc1", "Potency": "inconclusive: 12.6 µM [inhibitor, partial curve, poor fit]"},
      {"smiles": "CN(CC(=O)Nc1cccc(F)c1)C(=O)c1cn2ccccc2n1", "Potency": "inconclusive: 112 µM [inhibitor, single point]"},
      {"smiles": "COc1ccccc1CNC(=O)c1ccc(-c2nc(CS(=O)(=O)c3ccc(C)cc3)c(C)o2)cc1", "activity change, negative = inhibition": "inactive: -1.34%"},
      {"smiles": "FC(F)(F)c1ccc(/C=N/Nc2c(Cl)cc(Cl)cc2Cl)cc1", "Potency": "inconclusive: 56.2 µM [inhibitor, partial curve, poor fit]"},
      {"smiles": "CCCCCC(=O)Nc1cccc(C2=NOC3(C2)C[C@@H](C(N)=O)N(C(=O)c2cc([N+](=O)[O-])cc([N+](=O)[O-])c2C)C3)c1", "note": "(stereo partly specified)", "Potency": "inconclusive: 31.6 µM [inhibitor, partial curve, poor fit]"},
      {"smiles": "CCOc1ccc(S(=O)(=O)c2c(C(=O)c3ccc(C)cc3)cnc3cc4c(cc23)OCCO4)cc1", "activity change, negative = inhibition": "inactive: 7.05%"},
      {"smiles": "CCCc1nc2oc3cc(OC)ccc3c(=O)c2c(=O)n1Cc1ccco1", "Potency": "inconclusive: 17.8 µM [inhibitor, full curve, poor fit]"},
      {"smiles": "CCOc1ccc(NC(=O)N2CCc3ccccc3C2)cc1", "activity change, negative = inhibition": "inactive: -6.18%"},
      {"smiles": "O=C(O)c1ccc(-c2c[nH]c3ncc(-c4ccccc4)cc23)cc1C1CCCC1", "Potency": "inconclusive: 21.7 µM [inhibitor, partial curve, poor fit]"},
      {"smiles": "CC(C)NC(=O)C(=O)Nc1sc2c(c1C#N)CC(C)(C)OC2", "activity change, negative = inhibition": "inactive: -24%"},
      {"smiles": "CCOC(=O)c1cc(S(=O)(=O)NCc2cccc(Cl)c2)[nH]n1", "Potency": "inconclusive: 44.7 µM [inhibitor, partial curve, poor fit]"},
      {"smiles": "Cc1cc(C)cc(C(O)c2ncc(-c3ccc(Cl)cc3)[nH]2)c1", "note": "(stereo unspecified)", "activity change, negative = inhibition": "inactive: -4.01%"},
      {"smiles": "Cc1nnc(NC(=O)CCn2cnc3ccccc3c2=O)s1", "activity change, negative = inhibition": "inactive: 0%"},
      {"smiles": "COc1ccc(NC(=O)Nc2ccc3c(c2)C(=O)N([C@@H](C)CO)C[C@@H](C)[C@@H](CN(C)S(=O)(=O)c2cn(C)cn2)O3)cc1", "Potency": "inconclusive: 7.08 µM [inhibitor, partial curve, poor fit]"},
      {"smiles": "COc1ccc([C@H]2C[C@H](n3cc(-c4ccc(F)cc4)nn3)[C@@H](O)CN2CC2CCCCC2)cc1", "Potency": "inconclusive: 100 µM [inhibitor, single point]"},
      {"smiles": "C=CCN(Cc1ccc2c(c1)OCO2)C(C#Cc1ccccc1)c1ccccc1C(F)(F)F", "note": "(stereo unspecified)", "activity change, negative = inhibition": "inactive: -3.16%"},
      {"smiles": "Cc1cc2cc(CNC(=S)Nc3ccc(OC(F)(F)F)cc3)ccc2n1C", "Potency": "active: 39.8 µM"},
      {"smiles": "Cc1ccc(C2=NN=C(NC(=O)CSc3nncn3C)SC2)cc1", "Potency": "inconclusive: 7.94 µM [inhibitor, partial curve, poor fit]"},
      {"smiles": "CCCC(=O)Nc1ccccc1NC(=O)c1ccc(OCC)c(OCC)c1", "activity change, negative = inhibition": "inactive: -0.0421%"},
      {"smiles": "Nc1ccc(S(N)(=O)=O)cc1[N+](=O)[O-]", "activity change, negative = inhibition": "inactive: 15.8%"},
      {"smiles": "COc1ccc(C2Cn3nnc(-c4nc(-c5cccnc5)no4)c3CO2)cc1", "note": "(stereo unspecified)", "activity change, negative = inhibition": "inactive: -1.15%"},
      {"smiles": "O=C(COC(=O)CSc1ccc(F)cc1)NCc1ccco1", "activity change, negative = inhibition": "inactive: -14%"},
      {"smiles": "C=CCc1ccccc1OCC(O)CNC", "note": "(stereo unspecified)", "activity change, negative = inhibition": "inactive: 0%"},
      {"smiles": "CC(C)CCNC(=O)C(c1ccc(O)cc1)N(Cc1cccs1)C(=O)C1COc2ccccc2O1", "note": "(stereo unspecified)", "activity change, negative = inhibition": "inactive: -35%"},
      {"smiles": "CCN1C(=O)[C@H]2[C@@H](c3ccc(-c4ccc(F)cc4)c(OC)c3)N3CCC[C@@]3(C(=O)OC)[C@H]2C1=O", "Potency": "inconclusive: 35.5 µM [inhibitor, partial curve, poor fit]"},
      {"smiles": "O=C(Nc1nc(-c2ccncc2)cs1)c1ccc(S(=O)(=O)N2CCCCC2)cc1", "activity change, negative = inhibition": "inactive: -3.18%"},
      {"smiles": "COc1ccc(-c2noc([C@@H]3CCCN3C(=O)COc3ccc(Cl)cc3)n2)cc1", "Potency": "inconclusive: 8.91 µM [inhibitor, full curve]"},
      {"smiles": "O=c1cc(CN(Cc2ccc(F)cc2)C2CCCCC2)nc2ccccn12", "activity change, negative = inhibition": "inactive: -22.3%"},
      {"smiles": "CC(C)[C@@H]1CC[C@@H](C)C[C@H]1OC(=O)C[n+]1cc(-c2ccc(Cl)cc2)n2c1CCCCC2", "Potency": "inconclusive: 79.4 µM [inhibitor, partial curve, poor fit]"},
      {"smiles": "CCN(CC)CCNC(=O)c1ccc(NC(=O)c2cccc(S(=O)(=O)N3CCCCCC3)c2)cc1", "Potency": "inconclusive: 126 µM [inhibitor, single point]"},
      {"smiles": "Clc1cccc(Cl)c1CN1CCN(c2ncccn2)CC1", "Potency": "inconclusive: 31.6 µM [inhibitor, partial curve, poor fit]"},
      {"smiles": "Cc1c(C(=O)N2CCc3ccccc3C2)oc2ccc(F)cc12", "activity change, negative = inhibition": "inactive: -3.05%"},
      {"smiles": "O=C(NC1CCN(Cc2ccccc2)CC1)c1cccc(S(=O)(=O)Nc2ccc(SC(F)F)cc2)c1", "activity change, negative = inhibition": "inactive: 215%"},
      {"smiles": "Cc1ncc(CO)c(CO)c1O", "Potency": "inconclusive: 70.8 µM [inhibitor, partial curve, poor fit]"},
      {"smiles": "Cc1cc(=O)n(CC(=O)Nc2ccc(N(C)C)cc2)c(-c2ccc(Cl)cc2)n1", "Potency": "inconclusive: 56.2 µM [inhibitor, partial curve, poor fit]"},
      {"smiles": "Cc1ccc(NS(=O)(=O)c2cc3[nH]c(=O)c(=O)[nH]c3cc2C)cc1N(C)C", "Potency": "inconclusive: 158 µM [inhibitor, partial curve, poor fit]"},
      {"smiles": "CN(c1ccccc1C(=O)NCc1ccccc1Cl)S(=O)(=O)c1ccccc1", "Potency": "inconclusive: 39.8 µM [inhibitor, single point]"},
      {"smiles": "COc1cc2c(c(OC)c1OC)-c1ccc(SC)c(=O)cc1C(NC=O)CC2", "note": "(stereo unspecified)", "Potency": "inconclusive: 63.1 µM [inhibitor, partial curve, poor fit]"}
    ]}
  ]
}
